Results reported in patent US8563746B2, “Cyclic benzimidazole derivatives useful as anti-diabetic agents” (Merck Sharp & Dohme Corp, priority 2008, dated 2013).
Some results were stated once for a whole list of compounds, not compound by compound.

By UniProt entry, the sequences of proteins in these tests, tags left out. Where a name states a change or a piece, a line headed by the entry shows the natural chain unless it says otherwise.
UniProt Q13131: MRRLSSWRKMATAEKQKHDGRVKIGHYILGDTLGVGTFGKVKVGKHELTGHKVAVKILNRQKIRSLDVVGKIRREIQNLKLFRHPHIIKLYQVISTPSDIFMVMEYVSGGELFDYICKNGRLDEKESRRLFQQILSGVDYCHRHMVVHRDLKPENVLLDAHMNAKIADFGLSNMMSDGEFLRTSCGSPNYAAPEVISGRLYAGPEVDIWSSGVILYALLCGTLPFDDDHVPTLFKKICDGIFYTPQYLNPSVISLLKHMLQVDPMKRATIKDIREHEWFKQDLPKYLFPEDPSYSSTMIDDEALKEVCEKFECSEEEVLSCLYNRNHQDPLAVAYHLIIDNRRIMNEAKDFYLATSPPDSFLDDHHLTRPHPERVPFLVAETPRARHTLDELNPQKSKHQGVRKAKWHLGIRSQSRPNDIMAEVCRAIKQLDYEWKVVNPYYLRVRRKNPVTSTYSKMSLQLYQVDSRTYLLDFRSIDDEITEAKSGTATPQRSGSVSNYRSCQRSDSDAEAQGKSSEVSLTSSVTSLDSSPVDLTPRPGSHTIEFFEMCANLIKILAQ
UniProt Q9Y478: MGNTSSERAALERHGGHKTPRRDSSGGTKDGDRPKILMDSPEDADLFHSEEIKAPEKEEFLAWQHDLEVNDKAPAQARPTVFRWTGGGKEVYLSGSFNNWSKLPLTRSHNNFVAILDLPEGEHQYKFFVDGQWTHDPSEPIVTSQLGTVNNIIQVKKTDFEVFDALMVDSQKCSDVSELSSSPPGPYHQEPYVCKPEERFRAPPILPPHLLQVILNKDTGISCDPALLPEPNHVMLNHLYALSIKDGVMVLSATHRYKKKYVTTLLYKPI

Target: recombinant human AMPK complex 1 (containing α1β1γ1) (Homo sapiens, UniProt Q13131+Q9Y478)
Experiment: In vitro AMPK activation assay ([…])
Format: biochemical
Conditions: recombinant human AMPK complex 1 (α1β1γ1); for % Maximum AMP Activation of human AMPK Complex 1: basal activity subtracted, expressed as % maximum AMP activation
Description: The recombinant human AMPK complex 1 (containing α1β1γ1) was obtained from baculovirus expression system. Recombinant viruses were generated by cotransfection of AMPK/pBacPak9 clones with Baculogold baculovirus DNA (Pharmingen) in spodoptera frugiperda 21 cells according to the manufacturer's instructions. Each round of virus amplification was performed for 5 days in Grace's medium containing 10% serum. Virus that had been subjected to three rounds of amplification was used for all protein production procedures. To express the AMPK complex, sf21 cells were adapted to serum free medium (SF900 II, Invitrogen) by sequential dilution from serum containing stocks into SF900II medium and maintained in shaker flasks at 90 rpm at 27° C. The recombinant AMPK enzyme complex was produced by triple infection, one recombinant virus for each of the subunits, in sf21 cells under serum free conditions. Cells were infected in log phase, 1×10^6 cells/ml, at a multiplicity of infection of ˜5. Cells were harvested by centrifugation at 10,000×g for 15 minutes after 72 hours of infection with viruses. The insect cell pellet from 2 liters of culture was resuspended in 50 ml lysis buffer (20 mM Tris-HCl, 50 mM NaCl, 50 mM NaF, 30 mM Na PPi, 0.25 M sucrose, 10 mM ZnCl2, 2 mM DTT, 0.4 mg/ml digitonin) and subjected to two cycles of freeze-thaw lysis in a dry-ice ethanol bath. Insoluble material was removed by centrifugation at 10,000×g and the supernatant was fractionated with use of polyethylene glycol (PEG). The protein fraction precipitating between 2.5 and 6% PEG was used for further purification using a Blue-Sepharose step (Zhou et al, J. Clin. Invest. 108, 1167-1174, 2001).
The total in vitro AMPK activation assay volume is 50 μl in a 96-well plate. The reaction mixture contained 100 μM ATP (0.5 μCi ^33P-ATP per reaction), and 50 μM SAMS ([…]) in a buffer (20 mM HEPES, pH 7.0, 5 mM MgCl2, 0.01% Brij35). The reaction was initiated with addition of the enzyme. After 30-minute incubation at 30° C., the reaction was stopped by addition of 80 μl 1% H3PO4. Aliquots (100 μl) were transferred to 96-well MultiScreen plates (MAPHNOB50; Millipore Corp., Bedford, Mass., USA). The plate was washed three times with 1% H3PO4 followed by detection in a Top-count. The counts per minute from the basal activity (the reaction without activator) was subtracted from each well and the data were expressed as % maximum AMP activation followed by EC50 calculation.

SMILES | EC50 [µM] | % Maximum AMP Activation of human AMPK Complex 1
COc1ccc(C#Cc2cc3nc(SCC(=O)O)[nH]c3cc2Cl)cc1 [Example 39, [6-chloro-5-(4-methoxy-phenyl-ethynyl)-1H-benzimidazol-2-ylsulfanyl]-acetic acid] | < 10 | –
O=C(O)CSc1nc2cc(-c3ccc(OCc4ccccc4)c(F)c3)c(Cl)cc2[nH]1 [Example 40, [5-(4-Benzyloxy-3-fluoro-phenyl)-6-chloro-1H-benzimidazol-2-ylsulfanyl]-acetic acid] | < 10 | –
O=C(O)CSc1nc2cc(-c3ccc(Cl)cc3)c(Cl)cc2[nH]1 [Example 41, [6-chloro-5-(4-chloro-phenyl)-1H-benzimidazol-2-ylsulfanyl]-acetic acid] | < 10 | –
COc1ccc(-c2cc3nc(SCC(=O)O)[nH]c3cc2Cl)cc1 [Example 42, [6-chloro-5-(4-methoxy-phenyl)-1H-benzimidazol-2-ylsulfanyl]-acetic acid] | < 10 | –
CC(C)Cc1ccc(-c2cc3nc(SCC(=O)O)[nH]c3cc2Cl)cc1 [Example 43, [6-chloro-5-(4-isobutyl-phenyl)-1H-benzimidazol-2-ylsulfanyl]-acetic acid] | < 10 | –
O=C(O)CSc1nc2cc(-c3ccc(OCc4ccccc4)cc3)c(Cl)cc2[nH]1 [Example 44, [5-(4-benzyl-oxy-phenyl)-6-chloro-1H-benzimidazol-2-ylsulfanyl]-acetic acid] | < 10 | –
O=C(O)COc1nc2cc(-c3ccc(-c4ccn[nH]4)cc3)c(Cl)cc2[nH]1 [Example 45, {6-Chloro-5-[4-(2H-pyrazol-3-yl)-phenyl]-1H-benzoimidazol-2-yloxy}-acetic acid] | < 10 | –
O=C(O)COc1nc2cc(-c3ccc(-c4ccccc4)cc3)c(Cl)cc2[nH]1 [Example 46, [(5-biphenyl-4-yl-6-chloro-1H-benzimidazol-2-yl)oxy]ylacetic acid] | < 10 | –
O=C(O)COc1nc2cc(C#Cc3ccc(CO)cc3)c(Cl)cc2[nH]1 [Example 47] | < 10 | –
O=C(O)COc1nc2cc(C#Cc3ccccc3)c(Cl)cc2[nH]1 [Example 48, (6-Chloro-5-phenylethynyl-1H-benzoimidazol-2-yloxy)-acetic acid] | < 10 | –
CC(C)(COc1nc2cc(C#Cc3ccccc3)c(Cl)cc2[nH]1)C(=O)O [Example 49, 3-(6-Chloro-5-phenylethynyl-1H-benzoimidazol-2-yloxy)-2,2-dimethyl-propionic acid] | < 10 | –
O=C(O)CSc1nc2cc(-c3ccc4[nH]ccc4c3)c(Cl)cc2[nH]1 [Example 52, [6-Chloro-5-(1H-indol-5-yl)-1H-benzoimidazol-2-ylsulfanyl]acetic acid] | < 10 | greater than 40%
Cn1ccc2cc(-c3cc4nc(SCC(=O)O)[nH]c4cc3Cl)ccc21 [Example 53, [6-Chloro-5-(1-methyl-indol-5-yl)-1H-benzoimidazol-2-ylsulfanyl]acetic acid] | < 10 | greater than 40%
O=C(O)CSc1nc2cc(C#Cc3cccnc3)c(Cl)cc2[nH]1 [Example 56] | < 10 | –
O=C(O)CSc1nc2cc(C#Cc3ccccn3)c(Cl)cc2[nH]1 [Example 57] | < 10 | –
O=C(O)CSc1nc2cc(-c3ccc(-c4ccccc4)s3)c(Cl)cc2[nH]1 [Example 58] | < 10 | –
Cn1ccc2cc(-c3cc4nc(SCC(=O)O)[nH]c4cc3Cl)ccc21 [Example 59] | < 10 | –
O=C(O)CSc1nc2cc(-c3ccc(N4CCCCC4)cc3)c(Cl)cc2[nH]1 [Example 60] | < 10 | –
O=C(O)CSc1nc2cc(-c3ccc(N4CCOCC4)cc3)c(Cl)cc2[nH]1 [Example 61] | < 10 | –
O=C(O)CSc1nc2cc(-c3ccc(N4CCOCC4)nc3)c(Cl)cc2[nH]1 [Example 62] | < 10 | –
O=C(O)CSc1nc2cc(-c3cc4ccccc4s3)c(Cl)cc2[nH]1 [Example 63] | < 10 | –

SMILES | EC50 [µM] | % Maximum AMP Activation of human AMPK Complex 1
O=C(O)CSc1nc2cc(C#Cc3ccc(C(F)(F)F)cc3)c(Cl)cc2[nH]1 [Example 65] | < 10 | –
O=C(O)CSc1nc2cc(-c3ccc4[nH]ccc4c3)c(Cl)cc2[nH]1 [Example 66] | < 10 | –
O=C(O)CSc1nc2cc(C#Cc3ccc(Cl)cc3)c(Cl)cc2[nH]1 [Example 67] | < 10 | –
O=C(O)CSc1nc2cc(C#Cc3ccc(Br)cc3)c(Cl)cc2[nH]1 [Example 68] | < 10 | –
O=C(O)CSc1nc2cc(C#Cc3cc(F)cc(F)c3)c(Cl)cc2[nH]1 [Example 69] | < 10 | –
O=C(O)CSc1nc2cc(C#Cc3ccccc3[N+](=O)[O-])c(Cl)cc2[nH]1 [Example 70] | < 10 | –
O=C(O)CSc1nc2cc(-c3cccc(N4CCOCC4)n3)c(Cl)cc2[nH]1 [Example 71] | < 10 | –
O=C(O)CSc1nc2cc(-c3csc(-c4ccccc4)n3)c(Cl)cc2[nH]1 [Example 72] | < 10 | –
O=C(O)CSc1nc2cc(-c3ccc(-c4cnccn4)cc3)c(Cl)cc2[nH]1 [Example 73] | < 10 | –
CCc1ccc(C(=O)Cc2cc3nc(SCC(=O)O)[nH]c3cc2Cl)cc1 [Example 74] | < 10 | –
O=C(O)CSc1nc2cc(C#Cc3ccc(C(=O)O)cc3)c(Cl)cc2[nH]1 [Example 75] | < 10 | –
CC(=O)Nc1ccc(C#Cc2cc3nc(SCC(=O)O)[nH]c3cc2Cl)cc1 [Example 76] | < 10 | –
CS(=O)(=O)Nc1ccc(C#Cc2cc3nc(SCC(=O)O)[nH]c3cc2Cl)cc1 [Example 77] | < 10 | –
CCNC(=O)Nc1ccc(C#Cc2cc3nc(SCC(=O)O)[nH]c3cc2Cl)cc1 [Example 78] | < 10 | –
O=C(O)CSc1nc2cc(-c3ccc(Br)cc3)c(Cl)cc2[nH]1 [Example 79] | < 10 | –
O=C(O)CSc1nc2cc(-c3ccc(C(F)(F)F)cc3)c(Cl)cc2[nH]1 [Example 81] | < 10 | –
CN(C)C(=O)c1ccc(C#Cc2cc3nc(SCC(=O)O)[nH]c3cc2Cl)cc1 [Example 82] | < 10 | –
CNC(=O)c1ccc(C#Cc2cc3nc(SCC(=O)O)[nH]c3cc2Cl)cc1 [Example 83] | < 10 | –
CSc1ccc(-c2cc3nc(SCC(=O)O)[nH]c3cc2Cl)cc1 [Example 84] | < 10 | –
Cc1cc(-c2cc3nc(SCC(=O)O)[nH]c3cc2Cl)ccc1Cl [Example 85] | < 10 | –
C[S+]([O-])c1ccc(-c2cc3nc(SCC(=O)O)[nH]c3cc2Cl)cc1 (centres unmarked) [Example 86] | < 10 | –
